Measurements as given in PMC4737149, “The autoinhibitory CARD2-Hel2i Interface of RIG-I governs RNA selection”.

Experiments:
[1] = target: T1, RIG-I C-terminal repressor domain (RD) (human) (UniProt O95786); test: fluorescence anisotropy; details: 15 C, 150 mM NaCl stated for some supplementary assays, anisotropy at 15 C with 1-2 nM (blunt) or 40 nM (non-blunt) labelled RNA, recombinant protein, residues 801-925, protein details: N-terminal SUMO fusion construct, His (Ni-NTA)
T1 sequence (looked up): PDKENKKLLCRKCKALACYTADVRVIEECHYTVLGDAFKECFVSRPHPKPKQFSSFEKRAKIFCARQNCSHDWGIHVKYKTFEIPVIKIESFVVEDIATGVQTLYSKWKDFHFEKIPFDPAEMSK

[2] = target: T2, RIG-I full length (wt) (human) (UniProt O95786); test: fluorescence anisotropy; details: no ATP, 15 C, Kd within 3-478 nM, 150 mM NaCl stated for some supplementary assays, anisotropy at 15 C with 1-2 nM (blunt) or 40 nM (non-blunt) labelled RNA, recombinant protein, residues 1-925, protein details: N-terminal SUMO fusion construct, His (Ni-NTA)
T2 sequence (looked up): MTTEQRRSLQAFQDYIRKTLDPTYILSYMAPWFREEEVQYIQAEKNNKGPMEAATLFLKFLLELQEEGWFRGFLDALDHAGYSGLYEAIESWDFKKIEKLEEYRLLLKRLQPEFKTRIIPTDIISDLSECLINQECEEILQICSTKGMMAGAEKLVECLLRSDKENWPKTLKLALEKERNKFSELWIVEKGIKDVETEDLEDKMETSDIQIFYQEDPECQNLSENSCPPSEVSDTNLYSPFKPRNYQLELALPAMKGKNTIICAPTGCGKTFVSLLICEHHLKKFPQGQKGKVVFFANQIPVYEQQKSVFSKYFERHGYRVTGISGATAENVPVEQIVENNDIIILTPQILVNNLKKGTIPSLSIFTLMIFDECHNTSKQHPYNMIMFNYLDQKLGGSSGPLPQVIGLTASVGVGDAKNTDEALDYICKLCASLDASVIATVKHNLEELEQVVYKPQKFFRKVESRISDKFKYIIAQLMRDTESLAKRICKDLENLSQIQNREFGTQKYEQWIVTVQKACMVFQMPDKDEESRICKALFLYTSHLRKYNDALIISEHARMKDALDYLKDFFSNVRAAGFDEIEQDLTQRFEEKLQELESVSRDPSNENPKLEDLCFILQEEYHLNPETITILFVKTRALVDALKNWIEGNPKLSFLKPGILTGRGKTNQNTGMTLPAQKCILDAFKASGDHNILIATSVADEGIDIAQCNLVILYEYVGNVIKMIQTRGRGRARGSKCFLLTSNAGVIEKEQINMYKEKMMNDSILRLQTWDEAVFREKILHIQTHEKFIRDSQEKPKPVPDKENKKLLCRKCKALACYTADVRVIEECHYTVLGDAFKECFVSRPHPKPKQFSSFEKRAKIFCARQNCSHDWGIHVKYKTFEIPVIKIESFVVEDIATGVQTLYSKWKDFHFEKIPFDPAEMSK

[3] = target: T2, RIG-I full length (wt) (human); test: ATPase titration (Kd,app); details: ATP, 37 C, 150 mM NaCl stated for some supplementary assays, anisotropy at 15 C with 1-2 nM (blunt) or 40 nM (non-blunt) labelled RNA, recombinant protein, residues 1-925, protein details: N-terminal SUMO fusion construct, His (Ni-NTA)

Sequence: CGUGAGACAU / GUCUCACGUA [5'OH 3'ovg RNA]
- binding result ([1]; tighter than 5'ovg, label: fluorescein on strand 2 in fluorescence assays): binds
- binding result ([2]; label: fluorescein on strand 2 in fluorescence assays): binds

Sequence: CGUGAGACAU [5'OH ss10 RNA]
- binding result [3]: no binding

Sequence: CGUGAGACAU / UCAUGUCUCA [5'ppp 5'ovg RNA]
- binding result ([1]; weaker than 3'ovg, 5'-triphosphate on strand 1, label: 5' fluorescein on strand 2 in fluorescence …): binds
- binding result ([2]; 5'-triphosphate on strand 1, label: 5' fluorescein on strand 2 in fluorescence assays): binds

Sequence: CGUGAGACAU / UCAUGUCUCA [5'OH 5'ovg RNA]
- binding result ([1]; weaker than 3'ovg and than 5'ppp, label: 5' fluorescein on strand 2 in fluorescence …): binds more weakly

Sequence: CGUGAGACAU [5'ppp ss10 RNA]
- binding result ([3]; 5'-triphosphate): no binding

For some of these results: A negative result means that nothing was seen under these conditions. Tags and fusion partners may be left off the protein sequences shown. For some of these results: For at least one entry, the source does not settle the construct or the ends of the probe. For some of these results: Weaker means in comparison with the reference protein, sequence or condition of that experiment. For some of these results: At least one verdict rests on a figure or table, not on a statement of the authors.
